Results published in PubChem BioAssay AID330 (DTP/NCI, 2004).
The list is a part of this screen's results and no random one: it gathers tests that were run many times, whatever their T/C, doses with no T/C, and many T/C values between a quarter and a half above the control. Other doses and runs of a compound stand elsewhere. T/C is the treated group as % of the vehicle group. Some doses have a count of surviving animals in place of a T/C: the source holds a T/C of zero for them, seemingly a mark for toxic or unscored doses. Some survivor counts are full or nearly so, which does not show that the dose was tolerated: the source hardly ever lists a survival T/C far under the control, and the zero likely stands for such cases as well. Survivors were counted at the toxicity check, usually on the fifth day, unless a day is given; later deaths do not show. Schedule codes are those of the source, taken here to give the interval after Q, in days (D) or hours (H), and the number of doses after X. Signs of the kind (2×) give the number of equal values in this list. Where survival is the endpoint, this PubChem deposit counts one and a half times the control or more as active, and values a quarter to a half above the control carry no call in these data; other NCI protocols may use other cut-offs.

Test system: P388 leukemia ip, CD2F1 mice, survival T/C
Assay: NCI In Vivo Anticancer Drug Screen. Data for tumor model P388 Leukemia (intraperitoneal) in CD2F1 (CDF1) mice
Settings: T/C endpoint: median survival time, higher T/C = longer survival; for T/C: vehicle: other
[1] = dose: 100.0 mg/kg/injection, schedule: Q04DX002 (ip), vehicle: saline with Tween-80
[2] = dose: 200.0 mg/kg/injection, schedule: Q04DX002 (ip), vehicle: saline with Tween-80

## CN(C)CC(CN(C)C)C(=O)c1ccc(Oc2ccc(Cl)cc2)cc1
dose: 15.0 mg/kg/injection, schedule: Q01DX005 (ip), vehicle: saline
  survivor count: 5 of 6
dose: 30.0 mg/kg/injection, schedule: Q01DX005 (ip), vehicle: saline
  survivor count: 0 of 6
dose: 60.0 mg/kg/injection, schedule: Q01DX005 (ip), vehicle: saline
  survivor count: 0 of 6
dose: 120.0 mg/kg/injection, schedule: Q01DX005 (ip), vehicle: saline
  survivor count: 0 of 6
dose: 240.0 mg/kg/injection, schedule: Q01DX005 (ip), vehicle: saline
  survivor count: 0 of 6

## CC(=O)O[C@H]1[C@@H]2c3c(ccc4c(=O)cc(-c5ccccc5)oc34)O[C@@H]2OC1(C)C
dose: 7.8 mg/kg/injection, schedule: Q01DX005 (ip), vehicle: Klucel (hydroxypropylcellulose) (HPC)
  survivor count: 6 of 6

## Cn1c2ccccc2c2nnc(N/N=C/c3cccnc3)nc21
[1]
  survivor count: 6 of 6
[2]
  survivor count: 6 of 6

## c1cn(C23CC4CC(CC(C4)C2)C3)cn1
dose: 50.0 mg/kg/injection, schedule: Q01DX001 (ip), vehicle: Klucel (hydroxypropylcellulose) (HPC)
  survivor count: 0 of 6
dose: 100.0 mg/kg/injection, schedule: Q01DX001 (ip), vehicle: Klucel (hydroxypropylcellulose) (HPC)
  survivor count: 0 of 6 (2×)
dose: 200.0 mg/kg/injection, schedule: Q01DX001 (ip), vehicle: Klucel (hydroxypropylcellulose) (HPC)
  survivor count: 0 of 6
dose: 400.0 mg/kg/injection, schedule: Q01DX001 (ip), vehicle: Klucel (hydroxypropylcellulose) (HPC)
  survivor count: 0 of 6

## CC1(C)C(C)(C)C1(Br)Br
dose: 50.0 mg/kg/injection, schedule: Q01DX009 (ip), vehicle: saline + alcohol
  survivor count: 6 of 6

## N#CC1=C(C#N)C(=O)C(Cl)=C(Cl)C1=O
dose: 25.0 mg/kg/injection, schedule: Q04DX003 (ip), vehicle: saline
  survivor count: 3 of 6
dose: 50.0 mg/kg/injection, schedule: Q04DX002 (ip), vehicle: saline with Tween-80
  survivor count: 1 of 6
[1]
  survivor count: 0 of 6
[2]
  survivor count: 0 of 6
dose: 400.0 mg/kg/injection, schedule: Q04DX002 (ip), vehicle: saline with Tween-80
  survivor count: 0 of 6

## O=C(Nc1ccc(C2=NCCN2)cc1)c1ccc(C(=O)Nc2ccc(C3=NCCN3)cc2)cc1
dose: 167.0 mg/kg/injection, schedule: Q01DX010 (ip), vehicle: saline
  survivor count: 6 of 6
dose: 250.0 mg/kg/injection, schedule: Q01DX010 (ip), vehicle: saline
  survivor count: 6 of 6

## O=c1[nH]c2ccc(Br)cc2c(=O)o1
dose: 50.0 mg/kg/injection, schedule: Q01DX001 (ip)
  T/C: 140 % of control

## COc1ccccc1Cc1c(OC)cc(OC)c(C(=O)CCc2ccccc2)c1O
dose: 14.0 mg/kg/injection, schedule: Q01DX009 (ip)
  T/C: 127 % of control

## CN(C)c1cccc2c(S(=O)(=O)NCCCCCCCCCCCCNS(=O)(=O)c3cccc4c(N(C)C)cccc34)cccc12
dose: 60.0 mg/kg/injection, schedule: Q01DX005 (ip), vehicle: saline with Tween-80
  survivor count: 6 of 6
dose: 120.0 mg/kg/injection, schedule: Q01DX005 (ip), vehicle: saline with Tween-80
  survivor count: 6 of 6
